The target in this assay is CREBBP bromodomain (Homo sapiens, UniProt Q92793). The experiment in a line: SEC; CREBBP bromodomain run in the presence or absence of compound 2 (50 μM); test for dimerisation in solution; both purified.

Chains of the proteins cited; added tags and fusions are not shown. Residues count along the entry.
UniProt Q92793, residues 1081-1197: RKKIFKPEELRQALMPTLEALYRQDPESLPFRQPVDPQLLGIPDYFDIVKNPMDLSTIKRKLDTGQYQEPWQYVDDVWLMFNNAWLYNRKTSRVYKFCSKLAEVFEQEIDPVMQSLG

The results in this text go back to publication PMC8311651, “Controlling Intramolecular Interactions in the Design of Selective, High-Affinity Ligands for the CREBBP Bromodomain” (Journal of Medicinal Chemistry, 2021).

No constants are given. Whether binding was seen depends on the method and setting.

Consider “CREBBP bromodomain (from UniProt Q92793 1081-1197) (domain or fragment)”, for which the binding result is “no binding”.
